Like-named read-outs stand apart in the source and are kept apart here.
Settings: 1 mg CCN90906A, 50 rpm paddles, simulated intestinal fluid, n=6, FIG. 8

SMILES: Cc1cnc(C(=O)NCCc2ccc(S(=O)(=O)NC(=O)NC3CCCCC3)cc2)cn1 [CCN90906A, Glipizide]
- dissolution, especially during the first 60 minutes (Polysorbate 80 incorporated in film Accudep Core (20%)): faster dissolution
- dissolution, especially during the first 60 minutes (SLS incorporated in film Accudep Core (20% SLS)): faster dissolution

Source: patent US20020036154A1, “Solid pharmaceutical dosage formulation of hydrophobic drugs” (priority 2000, published 2002)
